Values from PubChem BioAssay AID1508588 (Peter MacCallum Cancer Centre, 2020).

- Aim: 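Knock-downs boosting vemurafenib effects on melanoma cell growth or lactate release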 (primary screen)
- System: human WM266.4 melanoma cells (BRAF V600 mutant)
- Knock-down reagent: siRNA pool against human genes, 40 nM
- Duration: 96 h from transfection to read-out
- Treatment: vemurafenib 300 nM (about IC25), added 48 h after transfection, for 48 h; comparison arm got DMSO vehicle only
- Measured: 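Ratios to non-targeting siRNA for cell gain, counted as DAPI nuclei after minus before drug and averaged over two replicates, and for absorbance-read medium lactate per cell; both binned into fold-change classes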
- Reading the numbers: cell gain with vemurafenib: higher = more cell gain than with non-targeting siRNA; lactate per cell with vemurafenib: higher = more lactate made per cell
- Rule for the call: 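a knock-down counts as enhancing when its fold-change classes with vehicle and with vemurafenib, taken together, show a stronger drug effect on cell gain or lactate per cell; exact class pairs not stated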
- Calls: active = enhances vemurafenib effect; inactive = no enhancement seen
In all, the deposit lists about 18,000 reagents; shown is a random part of them. 790 of them (4.4%) count as active. 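Calls rest on a combination of fold-change classes in drug and vehicle arms, not all shown here.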

| Gene | PubChem SID | cell gain with vemurafenib | lactate per cell with vemurafenib | Outcome |
| --- | --- | --- | --- | --- |
| OR5AK2 (olfactory receptor family 5 subfamily AK member 2) | SID134329907 | 0.9 | 0.88 | inactive |
| CTSL3P (cathepsin L family member 3, pseudogene) | SID135624818 | 0.54 | 0.86 | inactive |
| OR52A1 (olfactory receptor family 52 subfamily A member 1) | SID152149710 | 0.74 | 1.46 | inactive |
| ZNF586 (zinc finger protein 586) | SID152151636 | 0.15 | 1.07 | inactive |
| PPFIBP2 (PPFIB scaffold protein 2) | SID135624598 | 0.94 | 0.56 | inactive |
| AFG3L2 (AFG3 like matrix AAA peptidase subunit 2) | SID134311209 | 0.59 | 1.48 | inactive |
| BAGE (B melanoma antigen) | SID135624185 | 0.83 | 0.6 | inactive |
| PCSK4 (proprotein convertase subtilisin/kexin type 4) | SID152153109 | 0.75 | 1.66 | inactive |
| GUCY1A2 (guanylate cyclase 1 soluble subunit alpha 2) | SID134311965 | 0.24 | 1.93 | inactive |
| CHST1 (carbohydrate sulfotransferase 1) | SID152147925 | 0.61 | 1.03 | inactive |
| FBXL19 (F-box and leucine rich repeat protein 19) | SID152151673 | 0.47 | 1.44 | inactive |
| DRD5 (dopamine receptor D5) | SID134310928 | 0.31 | 2.83 | inactive |
| S1PR3 (sphingosine-1-phosphate receptor 3) | SID135620954 | 0.75 | 1.09 | inactive |
| S1PR3 (sphingosine-1-phosphate receptor 3) | SID152152548 | 0.53 | 0.68 | inactive |
| RABAC1 (Rab acceptor 1) | SID134323873 | 0.92 | 0.64 | inactive |
| ANKRD13A (ankyrin repeat domain 13A) | SID134326744 | 0.33 | 1.42 | inactive |
| CCM2L (CCM2 like scaffold protein) | SID134322501 | 0.58 | 0.48 | inactive |
| OR5I1 (olfactory receptor family 5 subfamily I member 1) | SID135621646 | 0.11 | 0.61 | inactive |
| CASQ1 (calsequestrin 1) | SID152151852 | 0.24 | 2.57 | inactive |
| IZUMO2 (IZUMO family member 2) | SID152149174 | 0.63 | 0.96 | inactive |
| RFX3 (regulatory factor X3) | SID134316082 | 0.6 | 1.05 | inactive |
| DZIP1 (DAZ interacting zinc finger protein 1) | SID152150541 | 0.94 | 0.97 | inactive |
| MKLN1 (muskelin 1) | SID152153412 | 0.79 | 0.69 | inactive |
| GTF3C4 (general transcription factor IIIC subunit 4) | SID152154960 | 0.82 | 1.1 | inactive |
| EPX (eosinophil peroxidase) | SID152156564 | 0.85 | 0.92 | inactive |
| SOX6 (SRY-box transcription factor 6) | SID152148248 | 0.42 | 2.02 | inactive |
| TUSC2 (tumor suppressor 2, mitochondrial calcium regulator) | SID134311811 | 1.04 | 0.52 | inactive |
| GK5 (glycerol kinase 5) | SID135621261 | 0.35 | 0.12 | inactive |
| FGF8 (fibroblast growth factor 8) | SID134317905 | 0.79 | 0.62 | inactive |
| SRPRB (SRP receptor subunit beta) | SID134317862 | 0.54 | 0.54 | inactive |
| CRP (C-reactive protein) | SID152148103 | 0.75 | 0.91 | inactive |
| TRAPPC6B (trafficking protein particle complex subunit 6B) | SID152148552 | 0.71 | 0.5 | inactive |
| ARPC2 (actin related protein 2/3 complex subunit 2) | SID134316378 | 0.21 | 0.02 | active |
| SMURF2 (SMAD specific E3 ubiquitin protein ligase 2) | SID152154420 | 0.3 | 1.64 | inactive |

Active calls, among the entries above:
| Gene | PubChem SID | cell gain with vemurafenib | lactate per cell with vemurafenib | Outcome |
| --- | --- | --- | --- | --- |
| ARPC2 (actin related protein 2/3 complex subunit 2) | SID134316378 | 0.21 | 0.02 | active |
